In patent US9457101B2, “Hydrogels for delivery of therapeutic polypeptides” (priority 2012, dated 2016):
Like-named read-outs stand apart in the source and are kept apart here.

Settings: for protein elution from the microspheres: 10 mM GSH
Protocol: Protein Release. GSH mediated release studies were carried out over 6 days. Protein release was measured from 10,000 to 20,000 microspheres into 500 μL PBS in the presence and absence of glutathione. Release was measured with three independent replicates per experimental group. […] Therefore, at each 24-hour time point, glutathione containing buffers were completely replaced. The buffer that was removed was frozen for later analysis. At the completion of the experiment, all frozen samples were thawed and 50 μL of each samples were diluted in PBS and read on a Quantech fluorometer.

GST-GFP
protein elution from the microspheres (48 hours): 50% | protein elution from the microspheres (6 days): complete elution | GST-GFP elution (10 mM and 1 mM GSH, within 48 hours): significantly eluted
